The results in this text go back to article PMC4907247.

Protein sequences, listed by entry. Tags and fused reporters are not part of them.
UniProt P15682: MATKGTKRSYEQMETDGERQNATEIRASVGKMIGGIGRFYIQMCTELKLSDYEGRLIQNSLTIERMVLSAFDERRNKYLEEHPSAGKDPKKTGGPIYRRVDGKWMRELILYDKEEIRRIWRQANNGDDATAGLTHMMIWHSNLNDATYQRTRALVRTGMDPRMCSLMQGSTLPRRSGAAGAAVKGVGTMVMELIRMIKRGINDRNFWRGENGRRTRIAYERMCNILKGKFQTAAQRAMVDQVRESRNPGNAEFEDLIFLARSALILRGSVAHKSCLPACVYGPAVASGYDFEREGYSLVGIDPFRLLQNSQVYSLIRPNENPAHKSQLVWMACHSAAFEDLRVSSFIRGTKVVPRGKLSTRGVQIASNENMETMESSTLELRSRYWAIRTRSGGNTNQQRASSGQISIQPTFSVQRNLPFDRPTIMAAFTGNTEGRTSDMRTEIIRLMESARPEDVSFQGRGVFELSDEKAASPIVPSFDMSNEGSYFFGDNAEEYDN

For the assay, the target named is scrambled control peptide. As to the kind of experiment: pull-down; only the target purified.

No constants are given. Whether binding was seen depends on the method and setting. In cells and extracts the contact can be indirect.

On to “nucleoprotein (NP) of influenza A/WSN/33 virus in infected cell lysates (from UniProt P15682 1-498)”, for which the binding result is recorded as “no binding”.
